{"source": "paper PMC11446014", "about": "“Human IL-22 receptor-targeted small protein antagonist suppress murine DSS-induced colitis” (Cell Communication and Signaling : CCS, 2024)", "molecular_target": "T1, IL-22R1 (IgG Fc chimera) (UniProt Q8N6P7)", "T1 sequence": "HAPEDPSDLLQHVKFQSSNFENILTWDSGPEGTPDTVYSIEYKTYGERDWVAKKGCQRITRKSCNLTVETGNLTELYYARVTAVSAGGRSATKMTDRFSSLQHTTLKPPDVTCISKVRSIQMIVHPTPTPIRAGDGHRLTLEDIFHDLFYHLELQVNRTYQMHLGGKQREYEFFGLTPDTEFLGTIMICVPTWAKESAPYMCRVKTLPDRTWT", "assay": "ELISA; competition, validation of the assay: IL-22R1 (IgG Fc chimera) coated at 2.5 µg/mL in carbonate buffer pH 9.6; IL-22 (His-tag) at 1 nM with serially diluted anti-IL-22 antibody IL22JOP; anti-His-tag HRP; both purified", "note": "These are yes or no findings as the source states them, for the method shown. Some entries that bind do so weakly or less than the wild type. Tags and fused reporters may be left off the sequences shown.", "data": [{"binder": "IL-22 (His-tag) (ligand, UniProt Q9GZX6 34-179) APISSHCRLDKSNFQQPYITNRTFMLAKEASLADNNTDVRLIGEKLFHGVSMSERCYLMKQVLNFTLEEVLFPQSDRFQPYMQEVVPFLARLSNRLSTCHIEGDDLHIQRNVQKLKDTVKKLGESGEIKAIGELDLLFMSLRNACI", "values": [{"measurement": "binding", "value": "binds"}]}]}
